Test results taken from patent publication US20220204601A1.
These are yes or no findings as the source states them, for the method shown. Some binding calls cover weakened binding; strength is not graded here.

Protein sequences, listed by entry. Tags and fused reporters are not part of them. Lines headed by an entry give the natural chain unless they say otherwise; changes in a name come on top.
UniProt P10636: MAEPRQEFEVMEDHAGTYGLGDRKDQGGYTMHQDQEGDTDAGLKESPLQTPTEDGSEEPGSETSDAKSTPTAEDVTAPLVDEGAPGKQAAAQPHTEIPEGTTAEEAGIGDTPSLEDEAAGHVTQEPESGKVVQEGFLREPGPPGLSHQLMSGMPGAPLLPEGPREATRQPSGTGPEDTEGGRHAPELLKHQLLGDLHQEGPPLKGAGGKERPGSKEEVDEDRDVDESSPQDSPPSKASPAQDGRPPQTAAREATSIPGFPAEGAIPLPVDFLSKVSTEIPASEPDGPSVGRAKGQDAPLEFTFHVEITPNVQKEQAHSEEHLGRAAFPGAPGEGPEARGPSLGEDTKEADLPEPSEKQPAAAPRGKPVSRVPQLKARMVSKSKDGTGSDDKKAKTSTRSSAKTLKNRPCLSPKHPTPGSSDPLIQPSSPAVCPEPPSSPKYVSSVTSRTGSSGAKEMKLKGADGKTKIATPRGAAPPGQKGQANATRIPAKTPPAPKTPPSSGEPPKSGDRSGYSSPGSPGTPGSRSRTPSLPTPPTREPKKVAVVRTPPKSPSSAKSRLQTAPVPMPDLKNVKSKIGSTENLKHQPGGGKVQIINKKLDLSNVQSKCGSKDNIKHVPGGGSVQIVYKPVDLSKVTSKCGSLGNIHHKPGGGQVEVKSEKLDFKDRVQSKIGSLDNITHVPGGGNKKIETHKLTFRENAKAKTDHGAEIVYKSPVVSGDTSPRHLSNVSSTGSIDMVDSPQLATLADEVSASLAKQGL

Molecular target: acetylated wild type tau protein (tau protein in which the 280th amino acid lysine is acetylated) (human) (UniProt P10636)
Assay: plate assay as drawn: capture Ab 1ug/well, antigen titrated, unit of the antigen amount not given

binding: binds
B1: ADEL-Y01h01_v01 antibody (antibody, V domains shown)
VH: EVQLQESGPGLVKPSQTLSLTCTVSGDSITSGYWNWIRQPPGKGLEYIGYIRYSGRTYYNPSLKSRVTISRDTSKNQFSLKLSSVTAADTAVYYCASVYFTYWGQGTLVTVSS
VL: DVVMTQSPLSLPVTLGQPASISCKSSQSLLDSDGKTYLNWFQQRPGQSPKRLISLVSKLDSGVPDRFSGSGSGTDFTLKISRVEAEDVGVYYCWQGSHFPYTFGQGTKLEIK
